Experimental findings from patent US20200079851A1 are described below.

By UniProt entry, the sequences of proteins in these tests, tags left out. Residues count along the entry.
UniProt Q8N423, residues 22-458: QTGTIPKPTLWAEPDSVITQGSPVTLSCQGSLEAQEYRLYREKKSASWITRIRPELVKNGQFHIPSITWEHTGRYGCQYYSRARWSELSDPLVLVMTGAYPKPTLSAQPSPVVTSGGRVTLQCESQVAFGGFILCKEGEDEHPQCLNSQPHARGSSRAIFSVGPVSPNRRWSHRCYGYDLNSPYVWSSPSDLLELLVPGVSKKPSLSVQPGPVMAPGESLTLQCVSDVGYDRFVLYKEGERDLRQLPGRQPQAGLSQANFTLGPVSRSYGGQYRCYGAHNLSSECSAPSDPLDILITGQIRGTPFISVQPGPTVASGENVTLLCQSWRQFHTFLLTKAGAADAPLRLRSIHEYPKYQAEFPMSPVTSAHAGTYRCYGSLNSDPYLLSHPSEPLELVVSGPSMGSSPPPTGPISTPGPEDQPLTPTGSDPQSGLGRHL

These are yes or no findings as the source states them, for the method shown. Some entries that bind do so weakly or less than the wild type.

Assay [1] concerns the target D2-SR-M1(139-259). The experiment in a line: ELISA, mAb titrated on D2-SR-M1(139-259). On the technique in general: ELISA stands for enzyme-linked immunosorbent assay.
Assay [2] addresses D2-SR-M16(210-259). The experiment in a line: ELISA, one bar for each antigen, antibody concentration not given.
In assay [3] the target is D2-SR-M1(139-259). Described as above.
Assay [4] deals with D2-SR-M16(210-259). In words: ELISA, mAb titrated on D2-SR-M16(210-259).
Assay [5] has as its target T1, D2-SR-M2(139-235).
T1 sequence: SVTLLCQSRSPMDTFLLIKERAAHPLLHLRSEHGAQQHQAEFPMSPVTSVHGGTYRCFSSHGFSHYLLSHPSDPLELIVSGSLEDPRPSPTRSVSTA
The experiment in a line: ELISA, mAb titrated on D2-SR-M2(139-235).

For assay [6], the target named is D2-SR-M15(139-219). In words: ELISA, mAb titrated on D2-SR-M15(139-219).
For assay [7], the target named is D2-SR-M15(139-219). The experiment in a line: ELISA, one bar for each antigen, antibody concentration not given.
Assay [8] addresses T1, D2-SR-M2(139-235). The description is as above.
In another assay the target is LILRB2 (human) (UniProt Q8N423). In words: reactivity table, assay not named on the sheet.

B1: anti-LILRB4 rabbit monoclonal antibody #216-2 (antibody, V domains shown)
VH: EQSLKESGGRLVTPGTPLTLTCTVSGIDLSSYAMTWVRQVPGKGLEYIGFINIVGIAGYATWAKGRFTISKTSTTVDLKVTSPTTEDTATYFCARNWIRLDLWGQGTLVTVSS
VL: ELVMTQTPASVSAAVGGTVTISCQSSESLYKKNYLSWFQQKPGQPPKLLIYEASKLASGVPSRFSGSGSGTQFTLTISDVQCDDAASYYCLGDYTNGRDTTFGGGTEVEIK
B1: the binding entry in the assay with D2-SR-M1(139-259) [1], with D2-SR-M16(210-259) [2], with D2-SR-M1(139-259) [3] and with D2-SR-M16(210-259) [4] was “binds” throughout.

B2: anti-LILRB4 rabbit monoclonal antibody #139 (antibody, V domains shown)
VH: EQSLEESGGRLVTPGTPLTLTCTVSGFSLNSYAMAWVRQAPGKGLEWIGIIGLSTMTYYASWVNGRFTISKTSTTVDLKMTSLTTEDTATYFCVRNDVYWAFNLWGQGTLVTVSS
VL: ELDLTQTPSSVSAGVGGTVSISCQSSESVVNNHALSWYQQKPGQPPKLLIYKASTLASGVPSRFSGSGSGAQFTLTISGVQCDDAATYYCQGGFYSGISDYPFGGGTEVEIK
As to B2, the binding result with D2-SR-M1(139-259) [1], with D2-SR-M2(139-235) [5], with D2-SR-M15(139-219) [6], with D2-SR-M15(139-219) [7], with D2-SR-M1(139-259) [3] and with D2-SR-M2(139-235) [8] was “binds” each time.

B3: anti-LILRB4 rabbit monoclonal antibody #8 (antibody, V domains shown)
VH: QSVKESGGGLVTPGGTLTLTCTASGFSLISYDMYWVRQAPGKGLEYIGIIYSDGYTFYATGAKGRITISRTSTTVDLKITSPTTEDTATYFCATNAFALWGQGTLVTISS
VL: ELDLTQTPSSVSAAVGGTVTISCQSSQNVYNNNWLVWLQQKPGQPPKRLIYTASSLASGVPSRFAGSGSATQFTLTISDLECGDAATYYCAGGYSGPIYTFGGGTEVEIK
With B3, the binding entry in the assay with D2-SR-M1(139-259) [1], with D2-SR-M16(210-259) [2], in the assay with D2-SR-M1(139-259) [3] and with D2-SR-M16(210-259) [4] was “binds” throughout.

B4: anti-LILRB mAb C290 (antibody, V domains shown)
VH: EVQLLQSGPELVKPGASVKISCRTSGYTFTEYTMHWVKQSHGKSLEWIGGINTNNGGTSYNQKFKGKATLTVDKSSSTAYMELRSLTSEDSAVYYCARDKRSRGELDSTMDYWGQGTSVTVSS
VL: DIVMTQAAPSVPVTPGESVSISCRSSKSLLHSNGNTYLYWFLQRPGQSPQLLIYRMSNLASGVPDRFSGSGSGTAFTLRISRVEAEDVGVYYCMQHLEYPFTFGSGTMLEIK
Consider B4, for which the binding result with LILRB2 (human) is “binds”.

B5: anti-LILRB4 mAb C84 (antibody, V domains shown)
VH: QIQLVQSGPELKKPGETVKISCKASGYTFTNYGMNWVKQAPGKGLKWMGWINTYTGEPTYADDFKGRFAFSLETSASTAYLQINNLKNEDMATYFCASIYYHTSLWYFDVWGAGTTVTVSS
VL: DVLMTQTPLSLPVSLGDQASISCRSSQNIVHSNGNTYLEWYLQKPGQSPKLLIYRVSNRFSGVPVRFSGSGSGTDFTLKISRVEAEDLGVYYCFQGSHVPLTFGAGTKLELK
With B5, the binding entry in the assay with LILRB2 (human) is given as “binds”.

B6: anti-LILRB4 mAb C201 (antibody, V domains shown)
VH: DVQLQESGPGLVKPSQSLSLTCTVTGYSITSDYAWNWIRQFPGNKLEWMGYISYSGGTSYNPSLKSRISITRDTSKNQFFLQLNSVTTEDTATYYCARLHYGYDYWGLGTTLTVSS
VL: DVLMTQTPLSLPVSLGDQASISCRSSQSIVHSNGNTYLEWYLQKPGQSPKLLIYKVSNRFSGVPDRFSGSGSGTDFTLKISRVEAEDLGVYYCFQGLHVPPTFGGGTKLEIK
Consider B6, for which the binding result in the assay with LILRB2 (human) was “binds”.
